Assay results: paper PMC1513213
No constants are given. Whether binding was seen depends on the method and setting. In cells and extracts the contact can be indirect. A result given as binding can be weak or reduced; the word gives no strength. Tags and fused reporters may be left off the sequences shown.

Molecular target: T1, LET-756::GFP (C. elegans) (UniProt Q11184)
T1 sequence: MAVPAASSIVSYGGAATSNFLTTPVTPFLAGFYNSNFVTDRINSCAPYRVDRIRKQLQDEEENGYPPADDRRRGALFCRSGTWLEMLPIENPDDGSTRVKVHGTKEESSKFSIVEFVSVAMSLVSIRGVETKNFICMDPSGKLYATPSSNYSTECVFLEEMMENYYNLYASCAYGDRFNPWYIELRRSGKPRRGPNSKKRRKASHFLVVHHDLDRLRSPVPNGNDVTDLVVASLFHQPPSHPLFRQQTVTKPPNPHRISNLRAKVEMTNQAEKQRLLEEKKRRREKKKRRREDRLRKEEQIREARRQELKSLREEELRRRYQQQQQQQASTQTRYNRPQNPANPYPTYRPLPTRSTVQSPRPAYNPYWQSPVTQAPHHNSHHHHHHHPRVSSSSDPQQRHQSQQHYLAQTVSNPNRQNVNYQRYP
Assay: co-IP; Cos-1 cells cotransfected with HA-tagged partner and LET-756::GFP, lysed 24 h later in triton buffer (10 mM Tris pH 7.4, 100 mM NaCl, 2.5 mM MgCl2, 1% triton, 1 mM EDTA, 10 mM DTT); immunoprecipitated with anti-GFP, blot with anti-HA then anti-GFP

binding, binds:
HA-tagged COL-129 (C. elegans)
HA-tagged SKR-2 (C. elegans)
HA-tagged C15C6.2 (C. elegans)
HA-tagged KIN-10 (from UniProt P28548-2)
